Reference: PMC11102480
These are yes or no findings as the source states them, for the method shown. In cells and extracts the contact can be indirect. Some entries that bind do so weakly or less than the wild type. Tags and fused reporters may be left off the sequences shown.

Chains of the proteins cited; added tags and fusions are not shown. Residues count along the entry.
UniProt Q9NZQ7, residues 19-290: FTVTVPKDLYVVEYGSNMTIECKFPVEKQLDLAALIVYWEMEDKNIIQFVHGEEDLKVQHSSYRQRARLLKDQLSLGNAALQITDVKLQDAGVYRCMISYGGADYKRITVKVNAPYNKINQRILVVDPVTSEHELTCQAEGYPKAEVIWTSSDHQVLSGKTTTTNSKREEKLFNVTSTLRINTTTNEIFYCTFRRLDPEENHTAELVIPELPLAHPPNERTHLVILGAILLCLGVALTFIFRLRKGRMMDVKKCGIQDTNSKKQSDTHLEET

Target: T1, Flag-tagged IPO5 (Importin 5) (UniProt O00410)
T1 sequence: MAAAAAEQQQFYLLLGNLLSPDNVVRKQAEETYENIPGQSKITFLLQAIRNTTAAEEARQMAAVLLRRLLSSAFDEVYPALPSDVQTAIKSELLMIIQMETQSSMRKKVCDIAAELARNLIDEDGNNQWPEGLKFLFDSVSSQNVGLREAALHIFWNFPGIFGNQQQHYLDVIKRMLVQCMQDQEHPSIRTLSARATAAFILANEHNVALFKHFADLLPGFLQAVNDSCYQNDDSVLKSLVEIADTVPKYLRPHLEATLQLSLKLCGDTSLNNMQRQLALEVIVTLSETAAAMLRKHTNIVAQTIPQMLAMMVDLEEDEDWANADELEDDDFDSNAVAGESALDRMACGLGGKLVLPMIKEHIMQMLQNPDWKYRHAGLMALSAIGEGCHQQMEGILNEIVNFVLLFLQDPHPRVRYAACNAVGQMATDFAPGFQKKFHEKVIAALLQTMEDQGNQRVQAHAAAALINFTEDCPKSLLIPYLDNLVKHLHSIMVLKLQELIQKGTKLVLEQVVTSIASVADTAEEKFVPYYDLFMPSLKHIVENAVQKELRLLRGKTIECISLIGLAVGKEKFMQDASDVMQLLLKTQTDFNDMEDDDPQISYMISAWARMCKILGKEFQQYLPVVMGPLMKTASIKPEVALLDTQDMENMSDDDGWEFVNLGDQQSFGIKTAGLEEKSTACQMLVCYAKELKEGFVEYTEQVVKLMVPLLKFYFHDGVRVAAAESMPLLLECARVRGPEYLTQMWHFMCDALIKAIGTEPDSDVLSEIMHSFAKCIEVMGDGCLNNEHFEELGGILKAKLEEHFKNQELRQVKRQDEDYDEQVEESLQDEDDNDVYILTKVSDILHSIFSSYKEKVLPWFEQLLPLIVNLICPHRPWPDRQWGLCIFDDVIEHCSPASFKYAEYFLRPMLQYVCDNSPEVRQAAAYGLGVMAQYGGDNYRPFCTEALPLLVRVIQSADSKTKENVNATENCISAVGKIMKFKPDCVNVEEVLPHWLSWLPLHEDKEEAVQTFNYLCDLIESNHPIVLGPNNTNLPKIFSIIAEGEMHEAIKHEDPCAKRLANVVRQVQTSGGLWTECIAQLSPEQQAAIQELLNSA
Test: co-IP; HEK 293T cells co-expressing Myc-tagged PD-L1 and Flag-tagged IPO5; lysates incubated with antibody (anti-Flag, anti-Myc or normal IgG) at 4 °C overnight, then protein A/G beads or M2 anti-Flag resin at room temperature 2-3 h; three washes with lysis buffer; Western blot

Substance: Myc-tagged PD-L1 (programmed cell death-ligand 1) (from UniProt Q9NZQ7 19-290)
- binding: binds
